# Patent publication US7851220B2, “Diacylhydrazine ligands for modulating the expression of exogenous genes in mammalian systems via an ecdysone receptor complex” (priority 2003, dated 2010)
# By UniProt entry, the sequences of proteins in these tests, tags left out. Where a name states a change or a piece, a line headed by the entry shows the natural chain unless it says otherwise.
# UniProt O77240: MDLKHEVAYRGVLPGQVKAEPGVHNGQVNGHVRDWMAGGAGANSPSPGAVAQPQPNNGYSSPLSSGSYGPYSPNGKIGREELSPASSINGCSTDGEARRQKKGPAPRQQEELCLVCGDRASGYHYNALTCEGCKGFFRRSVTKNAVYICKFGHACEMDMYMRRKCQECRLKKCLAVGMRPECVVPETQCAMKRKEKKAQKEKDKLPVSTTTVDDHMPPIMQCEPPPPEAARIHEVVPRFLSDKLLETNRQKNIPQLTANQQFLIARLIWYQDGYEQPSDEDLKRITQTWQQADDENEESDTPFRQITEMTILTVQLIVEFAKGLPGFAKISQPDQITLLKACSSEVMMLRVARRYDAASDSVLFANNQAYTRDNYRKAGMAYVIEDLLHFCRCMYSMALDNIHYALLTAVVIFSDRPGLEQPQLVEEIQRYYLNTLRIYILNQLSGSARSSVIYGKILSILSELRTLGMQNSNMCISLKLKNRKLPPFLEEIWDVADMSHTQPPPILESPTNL
# For at least one compound, name, drawing or mass did not settle the structure.
# Molecular target: T1, GAL4 DBD (1-147)-CfEcR(DEF)/VP16AD-βRXREF-LmUSPEF (Choristoneura fumiferana, UniProt O77240)
# T1 construct: The wild-type D, E, and F domains from spruce budworm Choristoneura fumiferana EcR (“CfEcR-DEF”)
# Assay: 27-63 Assay (luciferase reporter gene assay in stably transfected CHO cell clone)
# Type: cell-based
# Settings: maximum fold induction at any concentration relative to maximum fold induction of GS-E ligand, CHO 27-63 clone, 48 h
# Experimental: Stably transfected cells were selected by Zeocin resistance. Individually isolated CHO cell clones were transiently transfected with a GAL4 RE-luciferase reporter (pFR Luc). 27-63 clone was selected using Hygromycin.
# Cells were trypsinized and diluted to a concentration of 2.5×10^4 cells mL. 100 μL of cell suspension was placed in each well of a 96 well plate and incubated at 37° C. under 5% CO2 for 24 h. Ligand stock solutions were prepared in DMSO and diluted 300 fold for all treatments.
# Luciferase reporter gene expression was measured 48 h after cell treatment using Bright-Glo™ Luciferase Assay System from Promega (E2650). Luminescence was detected at room temperature using a Dynex MLX microtiter plate luminometer. EC50s were calculated from dose response data using a three-parameter logistic model.
# Each assay was conducted in two separate wells, and the two values were averaged.
smiles,measurement,value
"Cc1cc(C)cc(C(=O)N(NC(=O)c2ccc3c(c2C)O[C@@H](CS(C)(=O)=O)CO3)C(C)(C)C)c1 [RG-115818, 3,5-Dimethyl-benzoic acid N-tert-butyl-N′-(3-methanesulfonyl-methyl-5-methyl-2,3-dihydro-benzo[1,4]dioxine-6-carbonyl)-hydrazide]",relative Max F1 27-63 Assay,0.90
